Amino acid sequences for entries named in this document (tags omitted). A change or cut given only in a name is not applied to a line headed by its entry.
UniProt P07332: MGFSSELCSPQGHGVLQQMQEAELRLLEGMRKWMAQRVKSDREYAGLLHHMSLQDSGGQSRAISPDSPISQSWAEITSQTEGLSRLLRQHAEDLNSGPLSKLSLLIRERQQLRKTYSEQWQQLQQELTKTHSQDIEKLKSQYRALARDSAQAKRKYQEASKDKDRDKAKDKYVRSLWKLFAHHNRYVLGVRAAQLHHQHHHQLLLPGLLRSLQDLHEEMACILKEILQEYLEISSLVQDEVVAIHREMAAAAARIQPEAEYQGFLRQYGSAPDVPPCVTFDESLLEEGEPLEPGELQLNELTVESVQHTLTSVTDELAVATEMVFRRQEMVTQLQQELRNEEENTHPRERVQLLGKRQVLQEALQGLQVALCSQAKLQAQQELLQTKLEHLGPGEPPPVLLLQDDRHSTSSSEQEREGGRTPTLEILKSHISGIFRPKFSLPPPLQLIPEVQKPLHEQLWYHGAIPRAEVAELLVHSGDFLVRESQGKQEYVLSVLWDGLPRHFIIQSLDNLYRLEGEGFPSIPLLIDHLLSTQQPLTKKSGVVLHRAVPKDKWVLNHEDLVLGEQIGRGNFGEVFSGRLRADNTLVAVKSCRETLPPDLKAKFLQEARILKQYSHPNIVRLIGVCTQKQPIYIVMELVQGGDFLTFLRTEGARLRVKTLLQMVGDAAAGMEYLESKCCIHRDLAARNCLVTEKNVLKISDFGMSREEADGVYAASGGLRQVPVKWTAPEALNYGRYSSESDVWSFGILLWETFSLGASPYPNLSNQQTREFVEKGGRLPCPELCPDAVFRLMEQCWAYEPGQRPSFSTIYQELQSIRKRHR
UniProt Q9Y2K2: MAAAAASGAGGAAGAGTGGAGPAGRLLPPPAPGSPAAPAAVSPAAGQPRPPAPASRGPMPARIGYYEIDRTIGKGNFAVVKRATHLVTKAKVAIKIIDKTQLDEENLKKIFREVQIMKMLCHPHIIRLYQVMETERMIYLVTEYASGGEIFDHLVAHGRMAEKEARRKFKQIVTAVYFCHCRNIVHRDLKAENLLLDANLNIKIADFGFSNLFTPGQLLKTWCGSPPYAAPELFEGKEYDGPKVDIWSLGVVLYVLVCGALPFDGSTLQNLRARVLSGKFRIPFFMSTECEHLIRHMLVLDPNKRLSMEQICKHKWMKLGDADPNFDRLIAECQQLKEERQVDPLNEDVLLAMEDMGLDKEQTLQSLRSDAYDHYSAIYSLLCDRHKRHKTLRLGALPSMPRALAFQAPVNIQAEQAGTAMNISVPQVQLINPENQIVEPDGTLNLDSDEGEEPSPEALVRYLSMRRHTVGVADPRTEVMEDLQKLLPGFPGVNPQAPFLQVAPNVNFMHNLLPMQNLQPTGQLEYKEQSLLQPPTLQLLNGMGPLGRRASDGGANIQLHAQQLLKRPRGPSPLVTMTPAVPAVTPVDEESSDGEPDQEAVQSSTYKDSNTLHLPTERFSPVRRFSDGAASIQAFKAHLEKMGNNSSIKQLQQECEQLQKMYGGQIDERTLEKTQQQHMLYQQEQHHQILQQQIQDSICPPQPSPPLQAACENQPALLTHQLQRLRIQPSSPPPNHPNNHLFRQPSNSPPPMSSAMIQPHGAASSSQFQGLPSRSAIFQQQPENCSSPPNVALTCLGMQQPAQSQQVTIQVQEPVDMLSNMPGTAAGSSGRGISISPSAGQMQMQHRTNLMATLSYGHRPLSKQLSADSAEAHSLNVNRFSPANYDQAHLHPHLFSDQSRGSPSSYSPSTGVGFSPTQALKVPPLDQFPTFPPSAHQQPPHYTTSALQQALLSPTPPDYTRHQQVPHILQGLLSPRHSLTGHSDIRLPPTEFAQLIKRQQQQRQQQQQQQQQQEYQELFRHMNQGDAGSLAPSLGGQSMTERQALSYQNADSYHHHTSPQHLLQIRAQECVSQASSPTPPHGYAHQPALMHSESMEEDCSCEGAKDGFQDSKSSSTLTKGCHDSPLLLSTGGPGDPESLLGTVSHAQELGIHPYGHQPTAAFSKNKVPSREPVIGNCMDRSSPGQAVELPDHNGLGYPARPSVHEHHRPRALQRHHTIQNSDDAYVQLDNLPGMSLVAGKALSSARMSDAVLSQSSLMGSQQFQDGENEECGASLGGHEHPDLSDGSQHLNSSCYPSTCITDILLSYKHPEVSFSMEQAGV
UniProt O95835: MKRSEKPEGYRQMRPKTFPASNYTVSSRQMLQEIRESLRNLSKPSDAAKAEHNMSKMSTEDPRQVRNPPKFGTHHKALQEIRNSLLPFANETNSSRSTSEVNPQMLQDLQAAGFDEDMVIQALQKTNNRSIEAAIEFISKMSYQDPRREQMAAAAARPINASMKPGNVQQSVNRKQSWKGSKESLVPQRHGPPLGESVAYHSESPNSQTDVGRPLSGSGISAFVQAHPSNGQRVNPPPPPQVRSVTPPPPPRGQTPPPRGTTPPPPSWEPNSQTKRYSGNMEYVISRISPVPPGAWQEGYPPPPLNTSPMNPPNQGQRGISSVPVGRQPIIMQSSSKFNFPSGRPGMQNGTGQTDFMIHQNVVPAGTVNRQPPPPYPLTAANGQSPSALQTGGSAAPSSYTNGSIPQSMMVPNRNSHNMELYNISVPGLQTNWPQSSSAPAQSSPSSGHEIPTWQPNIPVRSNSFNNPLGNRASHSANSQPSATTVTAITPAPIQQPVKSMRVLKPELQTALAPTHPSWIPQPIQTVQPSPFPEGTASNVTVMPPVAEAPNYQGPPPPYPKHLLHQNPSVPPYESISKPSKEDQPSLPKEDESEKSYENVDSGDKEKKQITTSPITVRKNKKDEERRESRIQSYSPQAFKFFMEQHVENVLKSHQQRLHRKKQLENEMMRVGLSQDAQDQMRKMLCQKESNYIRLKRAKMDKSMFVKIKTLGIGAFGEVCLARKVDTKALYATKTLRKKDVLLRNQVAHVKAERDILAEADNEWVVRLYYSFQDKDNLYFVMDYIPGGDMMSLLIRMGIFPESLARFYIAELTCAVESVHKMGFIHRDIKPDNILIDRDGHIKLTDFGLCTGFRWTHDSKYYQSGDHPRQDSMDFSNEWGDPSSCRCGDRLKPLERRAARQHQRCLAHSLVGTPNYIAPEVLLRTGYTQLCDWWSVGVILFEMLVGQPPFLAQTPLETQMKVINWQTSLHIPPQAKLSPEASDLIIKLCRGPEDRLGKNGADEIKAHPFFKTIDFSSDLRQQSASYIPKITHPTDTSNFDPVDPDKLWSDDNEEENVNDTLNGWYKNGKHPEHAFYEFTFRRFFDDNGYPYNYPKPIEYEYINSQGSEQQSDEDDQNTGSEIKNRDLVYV
UniProt O15075: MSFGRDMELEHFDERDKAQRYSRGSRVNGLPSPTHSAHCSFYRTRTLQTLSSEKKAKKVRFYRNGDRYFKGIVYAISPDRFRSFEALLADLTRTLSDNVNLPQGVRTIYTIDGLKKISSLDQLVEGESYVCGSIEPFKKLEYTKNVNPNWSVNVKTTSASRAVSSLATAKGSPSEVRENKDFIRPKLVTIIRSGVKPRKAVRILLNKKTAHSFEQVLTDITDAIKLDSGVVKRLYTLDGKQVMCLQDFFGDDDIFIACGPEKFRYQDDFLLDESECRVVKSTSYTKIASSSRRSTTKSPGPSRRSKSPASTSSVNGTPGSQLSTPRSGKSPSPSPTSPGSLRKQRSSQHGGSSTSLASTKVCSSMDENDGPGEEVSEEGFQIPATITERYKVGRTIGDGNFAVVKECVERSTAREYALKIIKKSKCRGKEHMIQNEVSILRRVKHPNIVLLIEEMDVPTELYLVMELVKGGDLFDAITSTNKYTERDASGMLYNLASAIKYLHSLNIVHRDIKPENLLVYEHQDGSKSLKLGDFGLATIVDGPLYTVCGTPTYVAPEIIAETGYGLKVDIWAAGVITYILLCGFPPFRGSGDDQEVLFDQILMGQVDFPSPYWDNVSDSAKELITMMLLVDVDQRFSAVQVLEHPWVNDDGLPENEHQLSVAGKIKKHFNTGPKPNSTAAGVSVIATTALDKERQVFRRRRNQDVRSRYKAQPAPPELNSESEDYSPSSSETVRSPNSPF
UniProt O75385, whole entry, species assumed: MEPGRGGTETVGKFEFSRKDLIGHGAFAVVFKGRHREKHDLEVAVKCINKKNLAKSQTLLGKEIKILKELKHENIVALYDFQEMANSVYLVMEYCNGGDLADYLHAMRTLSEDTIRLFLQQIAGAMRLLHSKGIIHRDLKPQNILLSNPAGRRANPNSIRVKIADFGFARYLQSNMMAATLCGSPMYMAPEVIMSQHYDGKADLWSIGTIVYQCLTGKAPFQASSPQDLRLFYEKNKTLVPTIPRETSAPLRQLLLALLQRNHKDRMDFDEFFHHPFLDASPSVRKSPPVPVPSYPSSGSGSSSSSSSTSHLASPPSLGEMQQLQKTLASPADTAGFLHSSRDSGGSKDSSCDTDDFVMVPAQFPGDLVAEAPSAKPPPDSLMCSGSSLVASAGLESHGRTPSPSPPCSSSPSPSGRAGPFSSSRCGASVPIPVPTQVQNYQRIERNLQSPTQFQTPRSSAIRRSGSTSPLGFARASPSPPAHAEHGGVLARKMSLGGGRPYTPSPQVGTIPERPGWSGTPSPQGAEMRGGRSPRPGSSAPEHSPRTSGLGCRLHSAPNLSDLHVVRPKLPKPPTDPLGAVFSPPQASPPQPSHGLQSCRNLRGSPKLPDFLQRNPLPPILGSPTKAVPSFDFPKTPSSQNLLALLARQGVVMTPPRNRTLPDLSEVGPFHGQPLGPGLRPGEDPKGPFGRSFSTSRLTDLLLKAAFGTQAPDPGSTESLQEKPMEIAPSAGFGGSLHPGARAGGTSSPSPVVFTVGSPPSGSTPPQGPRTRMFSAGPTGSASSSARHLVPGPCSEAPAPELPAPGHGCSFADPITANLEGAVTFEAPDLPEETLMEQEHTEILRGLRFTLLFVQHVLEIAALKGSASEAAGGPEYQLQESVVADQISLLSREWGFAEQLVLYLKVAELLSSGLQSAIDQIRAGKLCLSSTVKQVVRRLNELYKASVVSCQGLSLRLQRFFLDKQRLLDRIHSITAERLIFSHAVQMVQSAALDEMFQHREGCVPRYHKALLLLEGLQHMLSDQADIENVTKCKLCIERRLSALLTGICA
UniProt Q00534, whole entry: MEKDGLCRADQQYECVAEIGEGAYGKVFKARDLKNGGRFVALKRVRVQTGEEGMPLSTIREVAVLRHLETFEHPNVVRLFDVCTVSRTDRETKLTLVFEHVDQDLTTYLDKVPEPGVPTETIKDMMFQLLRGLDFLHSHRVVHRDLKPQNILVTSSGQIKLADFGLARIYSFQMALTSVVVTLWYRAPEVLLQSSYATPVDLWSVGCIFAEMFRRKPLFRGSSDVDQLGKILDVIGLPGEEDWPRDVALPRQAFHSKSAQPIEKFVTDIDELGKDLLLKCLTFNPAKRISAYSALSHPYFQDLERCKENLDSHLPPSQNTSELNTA
UniProt Q15349, whole entry: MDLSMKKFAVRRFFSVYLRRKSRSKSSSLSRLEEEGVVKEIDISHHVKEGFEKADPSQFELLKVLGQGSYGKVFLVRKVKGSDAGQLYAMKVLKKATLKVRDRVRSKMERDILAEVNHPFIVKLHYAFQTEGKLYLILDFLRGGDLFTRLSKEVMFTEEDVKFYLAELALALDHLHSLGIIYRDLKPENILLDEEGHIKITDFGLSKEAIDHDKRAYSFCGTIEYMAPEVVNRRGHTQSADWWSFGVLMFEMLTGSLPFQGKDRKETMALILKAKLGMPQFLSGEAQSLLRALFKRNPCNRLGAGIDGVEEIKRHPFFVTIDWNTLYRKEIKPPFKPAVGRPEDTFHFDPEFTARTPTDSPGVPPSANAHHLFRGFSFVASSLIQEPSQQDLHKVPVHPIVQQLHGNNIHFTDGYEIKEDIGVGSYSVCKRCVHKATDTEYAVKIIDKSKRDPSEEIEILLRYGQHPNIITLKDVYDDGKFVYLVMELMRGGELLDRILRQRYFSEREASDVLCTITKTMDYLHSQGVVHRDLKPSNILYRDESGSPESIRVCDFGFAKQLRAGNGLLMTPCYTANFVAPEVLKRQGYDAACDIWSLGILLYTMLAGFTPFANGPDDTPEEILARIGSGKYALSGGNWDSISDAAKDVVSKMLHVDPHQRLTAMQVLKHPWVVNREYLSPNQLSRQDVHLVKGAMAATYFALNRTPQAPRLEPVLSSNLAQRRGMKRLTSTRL
UniProt Q96PN8: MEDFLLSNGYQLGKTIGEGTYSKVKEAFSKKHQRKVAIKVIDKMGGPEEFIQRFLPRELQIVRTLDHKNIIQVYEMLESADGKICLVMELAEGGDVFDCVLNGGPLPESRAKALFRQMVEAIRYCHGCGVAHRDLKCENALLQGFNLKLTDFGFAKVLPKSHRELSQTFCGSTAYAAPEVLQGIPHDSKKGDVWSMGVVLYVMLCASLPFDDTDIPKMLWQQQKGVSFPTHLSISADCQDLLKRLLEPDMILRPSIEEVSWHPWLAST

According to article PMC8213057, “Targeting ALK2: An Open Science Approach to Developing Therapeutics for the Treatment of Diffuse Intrinsic Pontine Glioma” (Journal of Medicinal Chemistry, 2020):

What was measured:
c-MET [1] = target: T1, c-MET (Homo sapiens, UniProt P08581); experiment: biochemical; details: read-out: % enzyme activity, 1 μM; Run 1, Run 2
CDK2/Cyclin A1 = CDK2/Cyclin A1 (Homo sapiens, UniProt P24941); details: 1 μM; Run 1, Run 2
P38g = P38g (Homo sapiens, UniProt P53778); details: 1 μM; Run 1, Run 2
PAK1 = PAK1 (Homo sapiens, UniProt Q13153); details: 1 μM; Run 1, Run 2
MYO3A = MYO3A (Homo sapiens, UniProt Q8NEV4); details: 1 μM; Run 1, Run 2
FES/FPS = FES/FPS (Homo sapiens, UniProt P07332); experiment: biochemical; details: read-out: % enzyme activity, 1 μM; Run 1, Run 2
SIK3 = SIK3 (Homo sapiens, UniProt Q9Y2K2); experiment: biochemical; details: read-out: % enzyme activity, 1 μM; Run 1, Run 2
LATS1 = LATS1 (Homo sapiens, UniProt O95835); experiment: biochemical; details: read-out: % enzyme activity, 1 μM; Run 1, Run 2
PIM3 = PIM3 (Homo sapiens, UniProt Q86V86); details: 1 μM; Run 1, Run 2
DAPK2 = DAPK2 (Homo sapiens, UniProt Q9UIK4); experiment: biochemical; details: read-out: % enzyme activity, 1 μM; Run 1, Run 2
NIM1 = NIM1 (Homo sapiens, UniProt Q8IY84); details: 1 μM; Run 1, Run 2
LOK/STK10 = LOK/STK10 (Homo sapiens, UniProt O94804); experiment: biochemical; details: read-out: % enzyme activity, 1 μM; Run 1, Run 2
SGK1 = SGK1 (Homo sapiens, UniProt O00141); details: 1 μM; Run 1, Run 2
MKK4 = MKK4 (Homo sapiens, UniProt P45985); experiment: biochemical; details: read-out: % enzyme activity, 1 μM; Run 1, Run 2
DCAMKL1 = DCAMKL1 (Homo sapiens, UniProt O15075); details: 1 μM; Run 1, Run 2
RIPK3 = RIPK3 (Homo sapiens, UniProt Q9Y572); details: 1 μM; Run 1, Run 2
ULK1 = ULK1 (Homo sapiens, UniProt O75385); experiment: biochemical; details: read-out: % enzyme activity, 1 μM; Run 1, Run 2
ABL2/ARG = ABL2/ARG (Homo sapiens, UniProt P42684); experiment: biochemical; details: read-out: % enzyme activity, 1 μM; Run 1, Run 2
c-MET [2] = target: T1, c-MET; details: 1 μM; Run 1, Run 2
HIPK4 = HIPK4 (Homo sapiens, UniProt Q8NE63); details: 1 μM; Run 1, Run 2
CDK6/cyclin D3 = CDK6/cyclin D3 (Homo sapiens, UniProt Q00534); experiment: biochemical; details: read-out: % enzyme activity, 1 μM; Run 1, Run 2
CDK7/cyclin H = CDK7/cyclin H (Homo sapiens, UniProt P50613); details: 1 μM; Run 1, Run 2
CDK5/P25 = CDK5/P25 (Homo sapiens, UniProt Q00535); details: 1 μM; Run 1, Run 2
MASTL = MASTL (Homo sapiens, UniProt Q96GX5); details: 1 μM; Run 1, Run 2
ERK7/MAPK15 = ERK7/MAPK15 (Homo sapiens, UniProt Q8TD08); experiment: biochemical; details: read-out: % enzyme activity, 1 μM; Run 1, Run 2
RSK2 = RSK2 (Homo sapiens, UniProt P51812); experiment: biochemical; details: read-out: % enzyme activity, 1 μM; Run 1, Run 2
GRK1 = GRK1 (Homo sapiens, UniProt Q15835); experiment: biochemical; details: read-out: % enzyme activity, 1 μM; Run 1, Run 2
RSK3 = RSK3 (Homo sapiens, UniProt Q15349); details: 1 μM; Run 1, Run 2
STK21/CIT = STK21/CIT (Homo sapiens, UniProt O14578); details: 1 μM; Run 1, Run 2
GRK3 = GRK3 (Homo sapiens, UniProt P35626); details: 1 μM; Run 1, Run 2
PLK1 = PLK1 (Homo sapiens, UniProt P53350); experiment: biochemical; details: read-out: % enzyme activity, 1 μM; Run 1, Run 2
PKCnu/PRKD3 = PKCnu/PRKD3 (Homo sapiens, UniProt O94806); experiment: biochemical; details: read-out: % enzyme activity, 1 μM; Run 1, Run 2
CDK4/cyclin D3 = CDK4/cyclin D3 (Homo sapiens, UniProt P11802); experiment: biochemical; details: read-out: % enzyme activity, 1 μM; Run 1, Run 2
CK1g1 = CK1g1 (Homo sapiens, UniProt Q9HCP0); details: 1 μM; Run 1, Run 2
CAMK2b = CAMK2b (Homo sapiens, UniProt Q13554); experiment: biochemical; details: read-out: % enzyme activity, 1 μM; Run 1, Run 2
TSSK3/STK22C = TSSK3/STK22C (Homo sapiens, UniProt Q96PN8); details: 1 μM; Run 1, Run 2
BRSK2 = BRSK2 (Homo sapiens, UniProt Q8IWQ3); details: 1 μM; Run 1, Run 2
PAK4 = PAK4 (Homo sapiens, UniProt O96013); experiment: biochemical; details: read-out: % enzyme activity, 1 μM; Run 1, Run 2
MRCKb/CDC42BPB = MRCKb/CDC42BPB (Homo sapiens, UniProt Q9Y5S2); experiment: biochemical; details: read-out: % enzyme activity, 1 μM; Run 1, Run 2
PKAcg = PKAcg (Homo sapiens, UniProt P22612); experiment: biochemical; details: read-out: % enzyme activity, 1 μM; Run 1, Run 2
P38b/MAPK11 = P38b/MAPK11 (Homo sapiens, UniProt Q15759); experiment: biochemical; details: read-out: % enzyme activity, 1 μM; Run 1, Run 2
DCAMKL2 = DCAMKL2 (Homo sapiens, UniProt Q8N568); experiment: biochemical; details: read-out: % enzyme activity, 1 μM; Run 1, Run 2
CLK3 = CLK3 (Homo sapiens, UniProt P49761); experiment: biochemical; details: read-out: % enzyme activity, 1 μM; Run 1, Run 2

For COc1cc(-c2cncc(-c3ccc(N4CCN(C(C)C)CC4)cc3)c2C)cc(F)c1C(N)=O [Compound 26b, 2-Fluoro-4-(5-(4-(4-isopropylpiperazin-1-yl)phenyl)-4-methylpyridin-3-yl)-6-methoxybenzamide], the remaining activity at 1 µM (c-MET [1]) was 98.4%, the “% enzyme activity” value (CDK2/Cyclin A1) was 111.68% and the “% enzyme activity” value (P38g) was 90.04%. For the same compound, the “% enzyme activity” value (PAK1) was 103.63%, the “% enzyme activity” value (MYO3A) was 95.48% and the remaining activity at 1 µM (FES/FPS) was 97%. The remaining activity at 1 µM (SIK3) was 72.6%, the remaining activity at 1 µM (LATS1) was 101% and the “% enzyme activity” value (PIM3) was 106.04%. For the same compound, the remaining activity at 1 µM (DAPK2) was 104%, the “% enzyme activity” value (NIM1) was 93.25% and the remaining activity at 1 µM (LOK/STK10) was 61.6%. The “% enzyme activity” value (SGK1) was 90.95%, the remaining activity at 1 µM (MKK4) was 94.3% and the “% enzyme activity” value (DCAMKL1) was 83.59%. For the same compound, the “% enzyme activity” value (RIPK3) was 111.71%, the remaining activity at 1 µM (ULK1) was 86.3% and the remaining activity at 1 µM (ABL2/ARG) was 98.8%. The “% enzyme activity” value (c-MET [2]) was 98.41%, the “% enzyme activity” value (HIPK4) was 103.79% and the remaining activity at 1 µM (CDK6/cyclin D3) was 89.5%. The “% enzyme activity” value (CDK7/cyclin H) was 101.47%, the “% enzyme activity” value (CDK5/P25) was 93.23% and the “% enzyme activity” value (MASTL) was 93.05%. For the same compound, the remaining activity at 1 µM (ERK7/MAPK15) was 90.5%, the remaining activity at 1 µM (RSK2) was 97.4% and the remaining activity at 1 µM (GRK1) was 95.4%. For the same compound, the “% enzyme activity” value (RSK3) was 99.21%, the “% enzyme activity” value (STK21/CIT) was 99.05% and the “% enzyme activity” value (GRK3) was 96.85%. For the same compound, the remaining activity at 1 µM (PLK1) was 98.8%, the remaining activity at 1 µM (PKCnu/PRKD3) was 142% and the remaining activity at 1 µM (CDK4/cyclin D3) was 93.7%. The “% enzyme activity” value (CK1g1) was 60.03%, the remaining activity at 1 µM (CAMK2b) was 89% and the “% enzyme activity” value (TSSK3/STK22C) was 94.89%. The “% enzyme activity” value (BRSK2) was 71.41%, the remaining activity at 1 µM (PAK4) was 104% and the remaining activity at 1 µM (MRCKb/CDC42BPB) was 97%. For the same compound, the remaining activity at 1 µM (PKAcg) was 92%, the remaining activity at 1 µM (P38b/MAPK11) was 102% and the remaining activity at 1 µM (DCAMKL2) was 70.7%. The remaining activity at 1 µM (CLK3) was 92.8%.
